According to article PMC10925063, “FUS unveiled in mitochondrial DNA repair and targeted ligase-1 expression rescues repair-defects in FUS-linked motor neuron disease” (Nature Communications, 2024):
No constants are given. Whether binding was seen depends on the method and setting. Binding seen in cells or lysates may run through a third protein. Some binding calls cover weakened binding; strength is not graded here.

Amino acid sequences for entries named in this document (tags omitted).
UniProt P35637: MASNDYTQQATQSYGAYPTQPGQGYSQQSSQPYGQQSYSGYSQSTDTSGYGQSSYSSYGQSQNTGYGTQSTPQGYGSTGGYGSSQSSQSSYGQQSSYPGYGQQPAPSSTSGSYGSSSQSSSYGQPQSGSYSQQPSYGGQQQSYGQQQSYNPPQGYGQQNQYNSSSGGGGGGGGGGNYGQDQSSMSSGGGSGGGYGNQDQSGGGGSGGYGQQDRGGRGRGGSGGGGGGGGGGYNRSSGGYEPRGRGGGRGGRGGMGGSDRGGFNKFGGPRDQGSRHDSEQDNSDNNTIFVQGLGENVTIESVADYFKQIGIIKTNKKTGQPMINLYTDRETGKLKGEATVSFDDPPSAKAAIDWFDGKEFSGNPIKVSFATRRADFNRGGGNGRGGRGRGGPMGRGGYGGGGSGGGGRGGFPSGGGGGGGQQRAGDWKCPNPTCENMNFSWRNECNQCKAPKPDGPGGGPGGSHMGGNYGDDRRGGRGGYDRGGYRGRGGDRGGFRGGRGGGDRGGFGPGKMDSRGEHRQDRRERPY

Key:
[1] = biological target: Fused in Sarcoma (FUS), endogenous wild type (human (endogenous in HEK293, fibroblasts, iPSC-derived motor neurons and NPSCs)) (UniProt P35637); experiment: co-IP; endogenous FUS precipitated with anti-FUS antibody and protein A/G PLUS agarose, immunoblot for Lig3; HEK293 cells with and without GO; lysis in 0.2% NP-40, 150 mM NaCl, 25 mM Tris-HCl, 0.1% SDS
[2] = biological target: Fused in Sarcoma (FUS), endogenous wild type (human (endogenous in HEK293, fibroblasts, iPSC-derived motor neurons and NPSCs)) (UniProt P35637); experiment: co-IP; endogenous FUS precipitated with anti-FUS antibody and protein A/G PLUS agarose, immunoblot for Lig3; patient derived NPSC cells; lysis in 0.2% NP-40, 150 mM NaCl, 25 mM Tris-HCl, 0.1% SDS
[3] = biological target: Fused in Sarcoma (FUS), endogenous wild type (human (endogenous in HEK293, fibroblasts, iPSC-derived motor neurons and NPSCs)) (UniProt P35637); experiment: proximity ligation; Duolink in situ PLA of FUS vs Lig3 in control and patient fibroblasts (Supplementary Fig. 5a); with or without GO

Measured: binding

B1: mtDNA Ligase IIIα (mtLig3) (enzyme, UniProt P49916 43-1009, looked up)
chain: LLHGHPLFLRRKPVLSFQGSHLRSRATYLVFLPGLHVGLCSGPCEMAEQRFCVDYAKRGTAGCKKCKEKIVKGVCRIGKVVPNPFSESGGDMKEWYHIKCMFEKLERARATTKKIEDLTELEGWEELEDNEKEQITQHIADLSSKAAGTPKKKAVVQAKLTTTGQVTSPVKGASFVTSTNPRKFSGFSAKPNNSGEAPSSPTPKRSLSSSKCDPRHKDCLLREFRKLCAMVADNPSYNTKTQIIQDFLRKGSAGDGFHGDVYLTVKLLLPGVIKTVYNLNDKQIVKLFSRIFNCNPDDMARDLEQGDVSETIRVFFEQSKSFPPAAKSLLTIQEVDEFLLRLSKLTKEDEQQQALQDIASRCTANDLKCIIRLIKHDLKMNSGAKHVLDALDPNAYEAFKASRNLQDVVERVLHNAQEVEKEPGQRRALSVQASLMTPVQPMLAEACKSVEYAMKKCPNGMFSEIKYDGERVQVHKNGDHFSYFSRSLKPVLPHKVAHFKDYIPQAFPGGHSMILDSEVLLIDNKTGKPLPFGTLGVHKKAAFQDANVCLFVFDCIYFNDVSLMDRPLCERRKFLHDNMVEIPNRIMFSEMKRVTKALDLADMITRVIQEGLEGLVLKDVKGTYEPGKRHWLKVKKDYLNEGAMADTADLVVLGAFYGQGSKGGMMSIFLMGCYDPGSQKWCTVTKCAGGHDDATLARLQNELDMVKISKDPSKIPSWLKVNKIYYPDFIVPDPKKAAVWEITGAEFSKSEAHTADGISIRFPRCTRIRDDKDWKSATNLPQLKELYQLSKEKADFTVVAGDEGSSTTGGSSEENKGPSGSAVSRKAPSKPSASTKKAEGKLSNSNSKDGNMQTAKPSAMKVGEKLATKSSPVKVGEKRKAADETLCQTKVLLDIFTGVRLYLPPSTPDFSRLRRYFVAFDGDLVQEFDMTSATHVLGSRDKNPAAQQVSPEWIWACIRKRRLVAPC
notes: DNA ligase IIIα, human, endogenous; also called LigIII; mitochondrial version of Lig3; source: endogenous, in HEK293 cells, fibroblasts, iPSC-derived motor neurons and NPSCs
binds: all assays above
